Primary screen of a compound library

Each number is a percent effect as filed.
The record does not define 0% and 100%; most values in the screen are far below 50% and negative numbers occur (in some assays of this library far below -100).
The compounds are a random part of those screened.
Two or more numbers in one place are separate tests of the same structure; such repeats can differ widely.

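Viability assay of Plasmodium falciparum sporozoites; the read-out is not stated. The concentration is filed as 10 mM, unlikely as a test dose, so the dose is not known. Direction is inferred from retests: higher values go with lower viability. Strong results were mostly tested again. Size under these conditions: about 34,000 compounds, about 280 of them at 50% or above in at least one test.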

{"structure": "CCn1cc(CN(C)S(=O)(=O)c2ccc(NC(C)=O)cc2)cn1", "percent effect": 2.632}
{"structure": "Cc1csc(N2CCCN(C(=O)Cc3ccc(C)s3)CC2)n1", "percent effect": 11.91}
{"structure": "c1cc(C2CCN(c3cnccn3)CC2)ncn1", "percent effect": 4.566}
{"structure": "Cc1nc(CN2CCCC(c3cc(C(F)(F)F)[nH]n3)C2)cs1", "stereo": "stereo not shown", "percent effect": -0.5915}
{"structure": "CCc1nc(C2CCCN2Cc2ccn(C)c(=O)c2)no1", "stereo": "stereo not shown", "percent effect": 3.354}
{"structure": "NC[C@H]1CC[C@H](C(NC(=O)c2ccccn2)c2ccccn2)CC1", "stereo": "stereo partly shown", "percent effect": -4.005}
{"structure": "CC(NC(=O)N1CCCCCC1)c1ccc(S(N)(=O)=O)cc1", "stereo": "stereo not shown", "percent effect": -5.623}
{"structure": "CCC(CN1CCCC1)NC(=O)C1(c2cccc(F)c2)CC1.O=C(O)CC(O)(CC(=O)O)C(=O)O", "stereo": "stereo not shown", "percent effect": 3.483}
{"structure": "CC(C)(C)c1ncc(C(=O)NCCNS(C)(=O)=O)s1", "percent effect": -2.728}
{"structure": "Fc1ccc2[nH]c3c(c2c1)CCN1C(c2ccccn2)N2CCC31CC2", "stereo": "stereo not shown", "percent effect": 2.971}
{"structure": "O=C1NCCCCC1Sc1nnc(-c2cccnc2)n1C1CC1", "stereo": "stereo not shown", "percent effect": -12.16}
{"structure": "Cc1ncsc1C(=O)NC1CCN(Cc2ccc(C#N)cc2)CC1", "percent effect": 0}
{"structure": "Cc1cc(C)c(CNC(=O)NCc2ccc3c(c2)CCC3)c(=O)[nH]1", "percent effect": "-2.473 & -11.78 & -14.55"}
{"structure": "COc1cc2c(cc1CNC(=O)Cc1ccc(C)nc1)OC(C)C2", "stereo": "stereo not shown", "percent effect": 5.085}
{"structure": "CCc1ccc(S(=O)(=O)Nc2ccn(CC(=O)OC)n2)cc1", "percent effect": 4.561}
{"structure": "Cc1nc(CN2CCc3nn(C(C)C)c(=O)cc3C2)oc1C", "percent effect": -9.861}
{"structure": "COc1ccc2nc(CNC(=O)C3CC4(CCNCC4)CN3C)[nH]c2c1", "stereo": "stereo not shown", "percent effect": 27.75}
{"structure": "Cc1ncc(Cl)c(C(=O)N2CCCC(n3nc(C)nc3C)C2)n1", "stereo": "stereo not shown", "percent effect": 7.313}
{"structure": "CC1CN(CC(=O)Nc2cccnc2)CCN1c1nccs1", "stereo": "stereo not shown", "percent effect": -7.769}
{"structure": "COc1cccc(CC(=O)NC2CCCc3cn[nH]c32)c1", "stereo": "stereo not shown", "percent effect": -0.6358}
{"structure": "Cn1c(NCC(O)c2ccc(F)c(F)c2)c(C#N)c(=O)n(C)c1=O", "stereo": "stereo not shown", "percent effect": 0.3615}
{"structure": "CC(C)OCCCNC(=O)CN1CCC(N2CCN(C)C2=O)CC1", "percent effect": 1.727}
{"structure": "Cc1noc(C)c1CN1CCN(Cc2nccn2C)C(C)C1", "stereo": "stereo not shown", "percent effect": -10.77}
{"structure": "CCC1CN(C(=O)NCc2cccnc2-n2cccn2)CCO1", "stereo": "stereo not shown", "percent effect": 7.427}
{"structure": "CN1C(=O)C(c2cccnc2)CC12CCN(Cc1nccs1)CC2", "stereo": "stereo not shown", "percent effect": 5.546}
{"structure": "CNc1ncc(-c2ccc(NC(=O)[C@@H]3CCCCN3)cc2)cn1", "percent effect": 5.843}
{"structure": "CN(C(=O)C1CCOCC1)[C@@H]1CCC[C@@H](N2CCCC2)[C@@H]1O", "percent effect": 6.695}
{"structure": "CCN1CCCC1CNCc1cc2cc(OC)ccc2[nH]c1=O", "stereo": "stereo not shown", "percent effect": -7.161}
{"structure": "O=C(c1ncccn1)N1CCC[C@]2(C[C@@H](OCC3CC3)CO2)C1", "percent effect": -9.021}
{"structure": "Cc1nc(CN2CCN(C(=O)c3sccc3C3CC3)CC2)oc1C", "percent effect": 3.912}
{"structure": "[H][C@]12C[C@H](C(=O)NC)N(S(C)(=O)=O)[C@@]1([H])CN(C(=O)c1ccco1)C2", "percent effect": 0.974}
{"structure": "COc1ccc(CNC(C)Cn2cccn2)cc1OC", "stereo": "stereo not shown", "percent effect": 4.684}

Measurements from “University of Dundee, Small-Polar-MMV Screening Library” (2021), ChEMBL document CHEMBL3988442.